The record followed here is patent US7247641B2, “Compounds, derivatives, compositions, preparation and uses” (MGI GP, Inc., priority 2001, dated 2007).

This data set has as its system focal cerebral ischemia in male Long-Evans rats. Kind of data set: Focal cerebral ischemia: right distal MCA cauterization with temporary bilateral CCA occlusion. The conditions noted are these: for PaCO2 / PaO2 / pH: arterial blood 30 min after MCA occlusion; for MABP Ischemia: average during occlusion; for MABP Steady State: just prior to occlusion; for relative blood flow in the right parietal cortex during occlusion, % of the baseline: laser Doppler, control 20.8±7.7. The format is in vivo, rat.

On to `O=C1NCCc2c(OCCCCN3CCCCC3)cccc21` [DPQ, 3,4-dihydro-5-[4-(1-piperidinyl)-butoxy]-1(2H)-isoquinolinone], for which, for the setting “5 mg/kg”, the PaCO2 is on record as 38.0 mm Hg, the PaO2 is reported as 126 ± 20 mm Hg, the pH is given as 7.36 and the “MABP Ischemia” value came out at 91 ± 12 mm Hg. For the setting “5 mg/kg”, the “MABP Steady State” value worked out at 78 ± 5 mm Hg and the “relative blood flow in the right parietal cortex during occlusion, % of the baseline” value (“relative blood flow … % of the baseline” below) is reported as 18.7±7.4%. For the same compound, for the setting “10 mg/kg”, the PaCO2 amounted to 39.3 mm Hg, the PaO2 stood at 125 ± 16 mm Hg, the pH worked out at 7.34 and the “MABP Ischemia” value was found to be 90 ± 14 mm Hg. For the same compound, where the note is “10 mg/kg”, the “MABP Steady State” value worked out at 80 ± 9 mm Hg and the “relative blood flow … % of the baseline” value is given as 21.4±7.7%. For the setting “20 mg/kg”, the PaCO2 was determined as 41.3 mm Hg, the PaO2 came to 122 ± 14 mm Hg, the pH came out at 7.35 and the “MABP Ischemia” value was determined as 91 ± 12 mm Hg. Also, the “MABP Steady State” value (20 mg/kg) is 79 ± 10 mm Hg. In addition, under “40 mg/kg”, the PaCO2 was 39.5 mm Hg, the PaO2 was 137 ± 17 mm Hg, the pH was 7.33 and the “MABP Ischemia” value worked out at 88 ± 12 mm Hg. Moreover, for the setting “40 mg/kg”, the “MABP Steady State” value is reported as 78 ± 4 mm Hg and the “relative blood flow … % of the baseline” value is reported as 19.3±11.2%.
